Data as given in PubChem BioAssay AID493014 (National Center for Advancing Translational Sciences (NCATS), 2011).
Values joined by “and” are separate entries in the source; they are usually repeats but may differ in a detail not shown here. Identical values can stand only once. The campaign covered roughly 340,000 compounds. About 170 (0.05%) were called active. This list was built around the results that the source calls inconclusive (neither active nor inactive); the mix of calls is not that of the screen. Calls come from the whole dose curve; as a rule, active = well fitted inhibition curve with a large enough effect in the signal ratio, with a control signal flat (not every such curve was filed as active); inconclusive = small, poorly fitted or top-dose-only effect, or effect the other way, or a change in a side signal; inactive = flat fitted curve, though single readings scatter; the % refers to the signal ratio. Potencies of inconclusive entries are doubtful fits and often do not repeat.

Experiment: qHTS Assay to Find Inhibitors of Chronic Active B-Cell Receptor Signaling;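 for activity change, negative = inhibition: plate controls were basal doxycycline-induced cells for no effect and cells given 10 µM MG132 for full effect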
Conditions: ABC-DLBCL IkBa-CBG/CBR reporter, luminescence ratio (green luciferase fused to IkBa over red control in TMD8 lymphoma cells), 4 h; activity change, negative = inhibition: at 46.1 µM (top of the series)
Method in brief: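 Concentration-response series (up to 46 uM) were applied to TMD8 dual-reporter cells for 4 h at 37C with doxycycline. Green/red ratio, after filter-overlap correction, defined %Activity; red signal alone was normalised to basal cells and zero luminescence.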
Potency is the fitted concentration of half-maximal effect.

SMILES	Potency	activity change, negative = inhibition
Cc1cc(=O)n(-c2ccc(O)cc2)[nH]1	inconclusive: 8.91 µM [rising, partial curve, poor fit]	–
COc1ccc(C(=O)N2c3ccccc3C(=O)OC2c2ccc3c(c2)OCO3)cc1 (stereo not given)	inconclusive: 23.1 µM [rising, partial curve, poor fit]	–
COc1cc(Cl)c(C)cc1NC(=O)c1ccc(NS(=O)(=O)c2ccc(F)c(F)c2)cc1	–	inactive: -1.9%
CCNC(=O)CN(c1ccccc1)S(=O)(=O)c1ccc(Cl)cc1	inconclusive: 32.6 µM [falling, single point]	–
CN(C(=O)c1ccc2c(c1)SC1=NS(=O)(=O)CCN12)C(c1ccccc1)c1ccccc1	–	inconclusive: -9.66%
CC(C)(C)C(=O)Nc1cc2nn(-c3ccccc3)nc2cc1Cl	inconclusive: 1.16 µM [falling, partial curve, poor fit]	–
COC(=O)CCSc1cc([N+](=O)[O-])cc2c1c(C1OCCS1)nn2-c1ccccc1 (stereo not given)	inconclusive: 11.2 µM [rising, single point]	–
CC(Cc1cccnc1)NC(=O)c1cc(COc2ccc(F)cc2Cl)on1 (stereo not given)	inconclusive: 25.1 µM [falling, single point]	–
Cc1cc2ccccc2n1CCNC(=O)C(C)C	–	inconclusive: 5.8%
CC1=CC(C)(C)N(S(=O)(=O)c2ccc(C)cc2)c2cc(C)ccc21	inconclusive: 1.16 µM [falling, full curve]	–
CN1OC(CC(=O)O)N(c2ccc(Cl)cc2)C1=O (stereo not given)	–	inconclusive: 20.8%
Nc1ccc2oc(=O)c3ccccc3c2c1	–	inactive: -7.36%
Cc1ccc(NC(=O)c2nnn(-c3ccc4c(c3)OCCO4)c2N)cc1	inconclusive: 11.2 µM [falling, partial curve]	–
Clc1ccc(Cl)c(OCCN2CCCC2)c1	–	inactive: 4.26%
CCCOC(=O)C1=C(C)NC2=C(C(=O)C(C(=O)OC)C(C)C2)C1c1ccc(N(C)C)cc1 (stereo not given)	–	inconclusive: 19.1%
C=CC[C@H](CC(=O)N(CCO)Cc1ccccc1)C(=O)N[C@H](COC(=O)[C@H](CC=C)CC(=O)OC(C)(C)C)Cc1ccccc1	–	inconclusive: -0.996%
Cc1nonc1CC(=O)N1CCc2c([nH]c3ccccc23)C1c1ccccc1F (stereo not given)	–	inconclusive: 12.6%
COc1ccc(Cl)cc1NC(=O)COC(=O)Cc1cc(OC)c(OC)c(OC)c1	–	inconclusive: -8.6%
Brc1ccccc1C1N=C(c2ccccc2)NO1 (stereo not given)	inconclusive: 20 µM [falling, single point]	–
O=C(O)CSc1nc2ccccc2s1	inconclusive: 10 µM [rising, partial curve, poor fit] and inconclusive: 8.91 µM [rising, partial curve, poor fit]	–

SMILES	Potency	activity change, negative = inhibition
CCc1nnc(NC(=O)C2Cc3ccccc3CN2S(=O)(=O)c2cccs2)s1 (stereo not given)	–	inconclusive: 0.194%
CC(=O)OCC(OC(C)=O)C(OC(C)=O)C(OC(C)=O)C(=O)Nc1ccc(C)cc1C (stereo not given)	–	inconclusive: 0.587%
O=C(/C=C/c1ccc(O)c(O)c1)c1ccccc1O	–	inconclusive: -22.7%
CCOC(=O)c1sc(NC(=O)Cc2ccc(C)cc2)nc1C	–	inconclusive: -9.62%
Cc1nc(-c2c(-c3ccc(O)cc3O)noc2C(F)(F)F)cs1	inconclusive: 29.1 µM [falling, single point]	–
CC(c1ccccc1)n1c(SCC(=O)N2CC(=O)Nc3ccccc32)nc2ccccc2c1=O (stereo not given)	–	inactive: 9.7%
CCN(CC)c1ccc(C(=O)c2ccccc2C(=O)O)c(O)c1	–	inconclusive: 8.83%
CC(=O)Nc1ccc(NC(=O)c2ccc(CSc3ccccc3)o2)cc1	–	inconclusive: -5.29%
O=C1CCN(CCc2ccccc2)CCN1[C@H](CO)c1ccccc1	–	inactive: -16.5%
O=C(CSc1n[nH]c(=O)n1Cc1ccco1)c1ccc2c(c1)OCCO2	–	inconclusive: -0.389%
COc1ncnc2c1oc1ccccc12	–	inactive: 29.3%
CCCCNC(=S)NCc1ccc2[nH]c(C)cc2c1	–	inactive: 4.99%
Cc1cc(Oc2ccc(N)cn2)cc(C)c1Cl	–	inconclusive: -19.5%
O=C(CSC1=NCCN1)NC12CC3CC(CC(C3)C1)C2	–	inconclusive: -12.5%
NC(=O)CC(NC(=O)c1ccccc1)c1ccc(NC2CCN(Cc3ccccc3)CC2)c([N+](=O)[O-])c1 (stereo not given)	inconclusive: 5.62 µM [falling, partial curve, poor fit]	–
S=c1[nH]nc(-c2ccc(Cl)cc2Cl)n1Cc1ccccc1	–	inconclusive: 1.57%
O=C(c1c(O)c2ccccc2oc1=O)C1CCCCC1	inconclusive: 20.6 µM [falling, single point]	–
CCOC(=O)c1c(NC(=S)Nc2ccccc2)sc(C)c1C	–	inactive: 10.7%
Cc1nc(-c2ccc3c(c2)OCCO3)cs1	–	inconclusive: 7.26%
Oc1c(Br)cc(Br)cc1C=Nc1ccc2[nH]ncc2c1	inconclusive: 25.1 µM [falling, single point]	–
